Assay results taken from the supplement of paper PMC12823440, “Inhibitors supercharge kinase turnover through native proteolytic circuits” (Nature, 2025).
This is one part of the list. Hit calls seldom repeat between salt and free forms of one compound.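 In K562 cells expressing nanoluciferase-fused kinases, luminescence was recorded at 4 h intervals between 2 and 18 h, normalized as percent of control with DMSO at 100% and a positive control at 0%. A significant (2 sigma) signal drop marks a time point as decreased. The authors' rule for a hit is not shown and takes in more than the number of time points.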

Protein sequences, listed by entry. Tags and fused reporters are not part of them. Lines headed by an entry give the natural chain unless they say otherwise; changes in a name come on top.
UniProt O75460: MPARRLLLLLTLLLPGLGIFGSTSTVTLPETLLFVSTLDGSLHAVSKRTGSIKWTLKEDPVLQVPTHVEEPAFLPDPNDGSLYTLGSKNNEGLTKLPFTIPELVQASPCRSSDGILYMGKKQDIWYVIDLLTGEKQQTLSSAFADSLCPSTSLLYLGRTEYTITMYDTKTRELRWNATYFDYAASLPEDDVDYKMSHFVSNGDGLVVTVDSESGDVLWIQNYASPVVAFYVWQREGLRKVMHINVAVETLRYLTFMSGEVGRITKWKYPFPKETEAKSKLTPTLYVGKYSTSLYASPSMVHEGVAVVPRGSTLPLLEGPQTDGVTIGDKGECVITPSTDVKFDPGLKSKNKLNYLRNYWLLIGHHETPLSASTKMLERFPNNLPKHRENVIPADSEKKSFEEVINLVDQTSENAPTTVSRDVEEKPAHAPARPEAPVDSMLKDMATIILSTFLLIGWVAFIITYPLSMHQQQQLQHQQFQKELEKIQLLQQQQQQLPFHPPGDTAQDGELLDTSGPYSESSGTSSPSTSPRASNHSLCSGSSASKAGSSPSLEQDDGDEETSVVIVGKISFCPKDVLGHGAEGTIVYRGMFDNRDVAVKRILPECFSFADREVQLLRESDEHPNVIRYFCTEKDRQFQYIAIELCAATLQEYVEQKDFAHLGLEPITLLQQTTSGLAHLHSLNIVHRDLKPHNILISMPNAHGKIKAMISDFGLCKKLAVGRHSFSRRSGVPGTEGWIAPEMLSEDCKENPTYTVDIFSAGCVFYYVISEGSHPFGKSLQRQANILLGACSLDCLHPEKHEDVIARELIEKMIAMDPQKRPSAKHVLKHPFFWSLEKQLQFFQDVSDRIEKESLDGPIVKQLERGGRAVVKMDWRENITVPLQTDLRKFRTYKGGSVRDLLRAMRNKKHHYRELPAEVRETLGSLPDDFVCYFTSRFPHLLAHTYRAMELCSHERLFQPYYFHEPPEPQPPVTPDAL
UniProt P11362, whole entry, looked up: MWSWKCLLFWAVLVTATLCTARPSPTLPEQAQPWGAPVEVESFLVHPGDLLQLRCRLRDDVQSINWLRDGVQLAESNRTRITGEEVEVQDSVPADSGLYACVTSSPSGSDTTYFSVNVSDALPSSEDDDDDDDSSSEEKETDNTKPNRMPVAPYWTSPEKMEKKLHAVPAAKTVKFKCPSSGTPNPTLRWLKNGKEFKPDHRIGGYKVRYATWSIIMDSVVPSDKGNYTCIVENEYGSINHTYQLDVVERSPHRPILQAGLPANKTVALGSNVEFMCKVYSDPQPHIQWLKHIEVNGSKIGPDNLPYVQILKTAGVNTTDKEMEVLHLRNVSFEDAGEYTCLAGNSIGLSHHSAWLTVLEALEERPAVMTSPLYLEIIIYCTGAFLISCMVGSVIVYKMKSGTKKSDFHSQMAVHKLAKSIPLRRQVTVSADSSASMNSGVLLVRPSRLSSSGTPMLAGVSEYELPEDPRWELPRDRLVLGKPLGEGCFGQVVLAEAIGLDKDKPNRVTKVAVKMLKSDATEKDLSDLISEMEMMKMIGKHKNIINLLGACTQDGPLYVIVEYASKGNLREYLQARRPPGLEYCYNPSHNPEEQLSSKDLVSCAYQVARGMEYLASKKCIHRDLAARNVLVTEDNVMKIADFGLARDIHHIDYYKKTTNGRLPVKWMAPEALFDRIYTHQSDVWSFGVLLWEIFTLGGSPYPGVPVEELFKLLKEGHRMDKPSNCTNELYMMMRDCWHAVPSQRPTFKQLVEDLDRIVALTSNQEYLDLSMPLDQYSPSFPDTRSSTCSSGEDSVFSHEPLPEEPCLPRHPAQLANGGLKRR
UniProt P06241, whole entry, looked up: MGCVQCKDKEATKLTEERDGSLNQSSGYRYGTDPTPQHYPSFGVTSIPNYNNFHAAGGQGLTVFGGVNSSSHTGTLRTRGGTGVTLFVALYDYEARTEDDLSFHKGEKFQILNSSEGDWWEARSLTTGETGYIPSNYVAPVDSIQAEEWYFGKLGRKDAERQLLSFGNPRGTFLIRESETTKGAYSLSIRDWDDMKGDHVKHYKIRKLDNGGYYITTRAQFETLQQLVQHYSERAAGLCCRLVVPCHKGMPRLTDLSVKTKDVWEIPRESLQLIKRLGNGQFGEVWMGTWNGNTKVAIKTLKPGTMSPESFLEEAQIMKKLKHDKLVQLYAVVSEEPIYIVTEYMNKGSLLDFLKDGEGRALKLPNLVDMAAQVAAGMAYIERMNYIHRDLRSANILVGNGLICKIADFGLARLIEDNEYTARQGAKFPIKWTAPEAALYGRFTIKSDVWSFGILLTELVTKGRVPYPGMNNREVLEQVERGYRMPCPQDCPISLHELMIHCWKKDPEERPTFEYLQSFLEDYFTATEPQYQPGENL
UniProt P14616: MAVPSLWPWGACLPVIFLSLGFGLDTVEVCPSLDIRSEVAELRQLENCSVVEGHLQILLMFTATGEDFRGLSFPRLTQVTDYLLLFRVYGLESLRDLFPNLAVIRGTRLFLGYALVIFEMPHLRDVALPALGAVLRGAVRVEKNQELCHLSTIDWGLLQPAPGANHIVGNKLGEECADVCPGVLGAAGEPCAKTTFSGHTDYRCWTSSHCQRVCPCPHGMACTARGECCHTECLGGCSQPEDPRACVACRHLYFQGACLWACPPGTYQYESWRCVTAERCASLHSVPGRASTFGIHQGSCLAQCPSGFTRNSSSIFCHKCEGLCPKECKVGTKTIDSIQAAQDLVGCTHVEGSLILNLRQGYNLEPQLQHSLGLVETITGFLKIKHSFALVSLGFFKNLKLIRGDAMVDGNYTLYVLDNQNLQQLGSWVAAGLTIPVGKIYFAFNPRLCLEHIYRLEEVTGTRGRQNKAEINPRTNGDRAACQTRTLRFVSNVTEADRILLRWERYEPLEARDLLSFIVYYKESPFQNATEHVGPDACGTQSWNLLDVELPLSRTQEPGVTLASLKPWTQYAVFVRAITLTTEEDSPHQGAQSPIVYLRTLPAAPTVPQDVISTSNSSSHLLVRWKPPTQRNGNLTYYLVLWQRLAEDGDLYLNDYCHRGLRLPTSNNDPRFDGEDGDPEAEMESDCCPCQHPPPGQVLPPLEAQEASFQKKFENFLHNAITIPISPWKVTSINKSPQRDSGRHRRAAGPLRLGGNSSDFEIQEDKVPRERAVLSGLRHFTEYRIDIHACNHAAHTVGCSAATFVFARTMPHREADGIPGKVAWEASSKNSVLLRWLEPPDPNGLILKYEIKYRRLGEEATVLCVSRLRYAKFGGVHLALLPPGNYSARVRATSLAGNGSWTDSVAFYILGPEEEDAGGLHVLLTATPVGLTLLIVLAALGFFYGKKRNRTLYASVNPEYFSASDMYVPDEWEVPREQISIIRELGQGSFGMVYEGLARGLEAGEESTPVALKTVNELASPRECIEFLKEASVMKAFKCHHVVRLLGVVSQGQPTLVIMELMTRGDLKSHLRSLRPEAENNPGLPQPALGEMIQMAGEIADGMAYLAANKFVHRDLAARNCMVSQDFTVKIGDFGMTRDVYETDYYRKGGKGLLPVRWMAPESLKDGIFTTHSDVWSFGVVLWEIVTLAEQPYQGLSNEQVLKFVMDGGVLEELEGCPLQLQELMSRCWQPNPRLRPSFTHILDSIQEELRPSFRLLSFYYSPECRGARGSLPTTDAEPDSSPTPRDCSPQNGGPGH
UniProt P23458: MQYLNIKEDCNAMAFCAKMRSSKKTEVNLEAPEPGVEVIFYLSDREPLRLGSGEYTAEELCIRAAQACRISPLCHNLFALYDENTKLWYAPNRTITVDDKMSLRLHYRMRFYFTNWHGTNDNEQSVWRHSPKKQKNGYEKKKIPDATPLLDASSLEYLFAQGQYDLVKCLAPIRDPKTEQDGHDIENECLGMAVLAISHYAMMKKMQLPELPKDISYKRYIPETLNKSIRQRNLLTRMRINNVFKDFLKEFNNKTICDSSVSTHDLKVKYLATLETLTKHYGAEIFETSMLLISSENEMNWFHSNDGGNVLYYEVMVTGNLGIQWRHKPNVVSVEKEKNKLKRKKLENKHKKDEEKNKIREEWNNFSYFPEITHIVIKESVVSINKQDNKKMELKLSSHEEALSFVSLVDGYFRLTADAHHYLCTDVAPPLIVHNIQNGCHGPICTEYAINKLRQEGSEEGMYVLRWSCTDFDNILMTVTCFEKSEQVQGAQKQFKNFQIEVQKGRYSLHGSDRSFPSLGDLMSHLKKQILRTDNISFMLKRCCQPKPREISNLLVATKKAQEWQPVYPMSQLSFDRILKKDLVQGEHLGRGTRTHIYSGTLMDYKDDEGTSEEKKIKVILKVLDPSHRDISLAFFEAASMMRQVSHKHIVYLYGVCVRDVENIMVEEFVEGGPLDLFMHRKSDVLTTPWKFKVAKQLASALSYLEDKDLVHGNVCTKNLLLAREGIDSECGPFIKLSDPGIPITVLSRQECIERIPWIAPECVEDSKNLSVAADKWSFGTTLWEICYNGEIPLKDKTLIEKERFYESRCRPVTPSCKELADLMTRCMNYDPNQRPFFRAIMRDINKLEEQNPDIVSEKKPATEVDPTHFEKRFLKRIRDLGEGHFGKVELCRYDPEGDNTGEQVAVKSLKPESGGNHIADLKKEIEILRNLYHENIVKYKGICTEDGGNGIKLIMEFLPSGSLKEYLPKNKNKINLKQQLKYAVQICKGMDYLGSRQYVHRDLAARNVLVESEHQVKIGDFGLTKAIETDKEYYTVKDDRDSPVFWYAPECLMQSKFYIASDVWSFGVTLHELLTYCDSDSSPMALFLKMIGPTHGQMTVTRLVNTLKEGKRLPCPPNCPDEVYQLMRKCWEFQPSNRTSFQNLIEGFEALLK
UniProt P06239: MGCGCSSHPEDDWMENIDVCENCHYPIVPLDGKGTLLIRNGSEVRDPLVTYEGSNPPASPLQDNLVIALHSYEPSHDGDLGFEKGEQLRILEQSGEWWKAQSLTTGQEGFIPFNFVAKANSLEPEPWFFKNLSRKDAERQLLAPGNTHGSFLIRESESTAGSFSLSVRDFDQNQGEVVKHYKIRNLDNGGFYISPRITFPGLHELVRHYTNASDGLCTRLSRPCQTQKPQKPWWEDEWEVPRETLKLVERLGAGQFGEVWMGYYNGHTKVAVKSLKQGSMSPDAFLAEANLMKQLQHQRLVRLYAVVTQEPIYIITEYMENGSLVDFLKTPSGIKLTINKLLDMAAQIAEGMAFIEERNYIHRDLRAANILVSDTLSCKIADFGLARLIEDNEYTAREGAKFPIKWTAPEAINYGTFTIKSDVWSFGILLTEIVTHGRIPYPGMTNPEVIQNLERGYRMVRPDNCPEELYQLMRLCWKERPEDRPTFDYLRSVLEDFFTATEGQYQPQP
UniProt P53671: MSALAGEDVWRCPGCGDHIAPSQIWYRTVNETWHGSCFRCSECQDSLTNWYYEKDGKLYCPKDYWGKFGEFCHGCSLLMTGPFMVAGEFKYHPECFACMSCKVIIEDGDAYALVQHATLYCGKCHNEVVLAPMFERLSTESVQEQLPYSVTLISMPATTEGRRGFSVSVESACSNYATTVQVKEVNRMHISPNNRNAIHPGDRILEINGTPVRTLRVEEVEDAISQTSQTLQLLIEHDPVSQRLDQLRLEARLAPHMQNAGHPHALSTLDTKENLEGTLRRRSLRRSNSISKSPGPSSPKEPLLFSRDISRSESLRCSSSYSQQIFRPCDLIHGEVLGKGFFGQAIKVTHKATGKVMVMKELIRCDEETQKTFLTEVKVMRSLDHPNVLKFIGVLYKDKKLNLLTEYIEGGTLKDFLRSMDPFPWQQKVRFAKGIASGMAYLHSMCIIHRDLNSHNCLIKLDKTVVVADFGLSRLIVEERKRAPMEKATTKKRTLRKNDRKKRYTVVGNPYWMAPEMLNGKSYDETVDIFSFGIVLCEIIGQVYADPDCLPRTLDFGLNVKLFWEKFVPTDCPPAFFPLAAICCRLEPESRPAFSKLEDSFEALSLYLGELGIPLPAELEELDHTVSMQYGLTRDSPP
UniProt P07948: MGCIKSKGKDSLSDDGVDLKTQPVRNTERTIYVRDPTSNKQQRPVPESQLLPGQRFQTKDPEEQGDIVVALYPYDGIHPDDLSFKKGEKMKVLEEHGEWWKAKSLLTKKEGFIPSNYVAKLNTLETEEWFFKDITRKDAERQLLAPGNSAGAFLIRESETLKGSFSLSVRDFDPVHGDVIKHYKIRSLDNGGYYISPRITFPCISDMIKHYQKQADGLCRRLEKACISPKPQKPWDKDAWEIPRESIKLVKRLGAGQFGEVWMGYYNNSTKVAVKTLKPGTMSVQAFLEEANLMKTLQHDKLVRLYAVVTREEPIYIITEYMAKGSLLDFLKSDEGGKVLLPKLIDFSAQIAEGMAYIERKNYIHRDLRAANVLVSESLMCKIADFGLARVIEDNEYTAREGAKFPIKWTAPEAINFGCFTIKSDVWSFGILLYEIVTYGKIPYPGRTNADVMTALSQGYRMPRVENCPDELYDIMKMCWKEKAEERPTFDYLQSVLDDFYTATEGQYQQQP

How the values were obtained:
Assay in all cases: kinase-Nluc reporter destabilization hit call (1 = scored as downregulated) (binary); higher = compound decreases kinase abundance
Settings in all cases: K562, 2-18 h
ERN1 = ERN1 (UniProt O75460)
FGFR1 = FGFR1 (UniProt P11362)
FGFR2 = FGFR2 (UniProt P21802)
FGFR3 = FGFR3 (UniProt P22607)
FGR = FGR (UniProt P09769)
FLT3 = FLT3 (UniProt P36888)
FYN = FYN (UniProt P06241)
GSK3A = GSK3A (UniProt P49840)
HER2 = HER2 (UniProt P04626)
INSRR = INSRR (UniProt P14616)
IRAK3 = IRAK3 (UniProt Q9Y616)
JAK1 = JAK1 (UniProt P23458)
LCK = LCK (UniProt P06239)
LIMK1 = LIMK1 (UniProt P53667)
LIMK2 = LIMK2 (UniProt P53671)
LMTK2 = LMTK2 (UniProt Q8IWU2)
LYN = LYN (UniProt P07948)
MAP2K1 = MAP2K1 (UniProt Q02750)
MAP2K2 = MAP2K2 (UniProt P36507)
MAP4K2 = MAP4K2 (UniProt Q12851)

Measured: kinase-Nluc reporter destabilization hit call

CC#CC(=O)N1CCC[C@H]1c1nc(-c2ccc(C(=O)Nc3ccccn3)cc2)c2c(N)nccn12 [Acalabrutinib]
inactive: ERN1; 10 µM 0 | FGFR1; 10 µM 0 | FGFR2; 10 µM 0 | FGFR3; 10 µM 0 | FGR; 10 µM 0 | FLT3; 10 µM 0 | FYN; 10 µM 0 | GSK3A; 10 µM 0 | HER2; 10 µM 0 | INSRR; 10 µM 0 | IRAK3; 10 µM 0 | JAK1; 10 µM 0 | LCK; 10 µM 0 | LIMK1; 10 µM 0 | LIMK2; 10 µM 0 | LMTK2; 10 µM 0 | LYN; 10 µM 0 | MAP2K1; 10 µM 0 | MAP2K2; 10 µM 0 | MAP4K2; 10 µM 0

C=CC(=O)N(C)CCOc1c(N)ncnc1-c1cc(F)cc(NC(=O)c2ccc(C3CC3)cc2F)c1C [Remibrutinib]
inactive: ERN1; 10 µM 0 | FGFR1; 10 µM 0 | FGFR2; 10 µM 0 | FGFR3; 10 µM 0 | FGR; 10 µM 0 | FLT3; 10 µM 0 | FYN; 10 µM 0 | GSK3A; 10 µM 0 | HER2; 10 µM 0 | INSRR; 10 µM 0 | IRAK3; 10 µM 0 | JAK1; 10 µM 0 | LCK; 10 µM 0 | LIMK1; 10 µM 0 | LIMK2; 10 µM 0 | LMTK2; 10 µM 0 | LYN; 10 µM 0 | MAP2K1; 10 µM 0 | MAP2K2; 10 µM 0 | MAP4K2; 10 µM 0

Cc1cnc(Nc2ccc(OCCN3CCCC3)cc2)nc1Nc1cccc(S(=O)(=O)NC(C)(C)C)c1 [Fedratinib]
inactive: ERN1; 2.5 µM 0 | FGFR1; 2.5 µM 0 | FGFR2; 2.5 µM 0 | FGFR3; 2.5 µM 0 | FGR; 2.5 µM 0 | FLT3; 2.5 µM 0 | FYN; 2.5 µM 0 | GSK3A; 2.5 µM 0 | HER2; 2.5 µM 0 | INSRR; 2.5 µM 0 | IRAK3; 2.5 µM 0 | JAK1; 2.5 µM 0 | LCK; 2.5 µM 0 | LIMK1; 2.5 µM 0 | LIMK2; 2.5 µM 0 | LMTK2; 2.5 µM 0 | LYN; 2.5 µM 0 | MAP2K1; 2.5 µM 0 | MAP2K2; 2.5 µM 0 | MAP4K2; 2.5 µM 0

CCOc1nc(NC(=O)Cc2cc(OC)ccc2OC)cc(N)c1C#N [JNK Inhibitor VIII]
inactive: ERN1; 10 µM 0 | FGFR1; 10 µM 0 | FGFR2; 10 µM 0 | FGFR3; 10 µM 0 | FGR; 10 µM 0 | FLT3; 10 µM 0 | FYN; 10 µM 0 | GSK3A; 10 µM 0 | HER2; 10 µM 0 | INSRR; 10 µM 0 | IRAK3; 10 µM 0 | JAK1; 10 µM 0 | LCK; 10 µM 0 | LIMK1; 10 µM 0 | LIMK2; 10 µM 0 | LMTK2; 10 µM 0 | LYN; 10 µM 0 | MAP2K1; 10 µM 0 | MAP2K2; 10 µM 0 | MAP4K2; 10 µM 0

COc1cc(Nc2c(C#N)cnc3cc(OCCCN4CCN(C)CC4)c(OC)cc23)c(Cl)cc1Cl [Bosutinib]
inactive: ERN1; 2.5 µM 0 | FGFR1; 2.5 µM 0 | FGFR2; 2.5 µM 0 | FGFR3; 2.5 µM 0 | FGR; 2.5 µM 0 | FLT3; 2.5 µM 0 | FYN; 2.5 µM 0 | GSK3A; 2.5 µM 0 | HER2; 2.5 µM 0 | INSRR; 2.5 µM 0 | IRAK3; 2.5 µM 0 | JAK1; 2.5 µM 0 | LCK; 2.5 µM 0 | LIMK1; 2.5 µM 0 | LIMK2; 2.5 µM 0 | LMTK2; 2.5 µM 0 | LYN; 2.5 µM 0 | MAP2K1; 2.5 µM 0 | MAP2K2; 2.5 µM 0 | MAP4K2; 2.5 µM 0

CN1CCN(c2nc(C3=C(c4c[nH]c5ccccc45)C(=O)NC3=O)c3ccccc3n2)CC1 [Sotrastaurin]
inactive: ERN1; 2.5 µM 0 | FGFR1; 2.5 µM 0 | FGFR2; 2.5 µM 0 | FGFR3; 2.5 µM 0 | FGR; 2.5 µM 0 | FLT3; 2.5 µM 0 | FYN; 2.5 µM 0 | GSK3A; 2.5 µM 0 | HER2; 2.5 µM 0 | INSRR; 2.5 µM 0 | IRAK3; 2.5 µM 0 | JAK1; 2.5 µM 0 | LCK; 2.5 µM 0 | LIMK1; 2.5 µM 0 | LIMK2; 2.5 µM 0 | LMTK2; 2.5 µM 0 | LYN; 2.5 µM 0 | MAP2K1; 2.5 µM 0 | MAP2K2; 2.5 µM 0 | MAP4K2; 2.5 µM 0

COc1nccc(-c2c(-c3ccc(F)cc3)ncn2C2CCNCC2)n1
inactive: ERN1; 10 µM 0 | FGFR1; 10 µM 0 | FGFR2; 10 µM 0 | FGFR3; 10 µM 0 | FGR; 10 µM 0 | FLT3; 10 µM 0 | FYN; 10 µM 0 | GSK3A; 10 µM 0 | HER2; 10 µM 0 | INSRR; 10 µM 0 | IRAK3; 10 µM 0 | JAK1; 10 µM 0 | LCK; 10 µM 0 | LIMK1; 10 µM 0 | LIMK2; 10 µM 0 | LMTK2; 10 µM 0 | LYN; 10 µM 0 | MAP2K1; 10 µM 0 | MAP2K2; 10 µM 0 | MAP4K2; 10 µM 0

NC1(C(=O)N[C@@H](CCO)c2ccc(Cl)cc2)CCN(c2nc[nH]c3nccc2-3)CC1 [Capivasertib]
inactive: ERN1; 10 µM 0 | FGFR1; 10 µM 0 | FGFR2; 10 µM 0 | FGFR3; 10 µM 0 | FGR; 10 µM 0 | FLT3; 10 µM 0 | FYN; 10 µM 0 | GSK3A; 10 µM 0 | HER2; 10 µM 0 | INSRR; 10 µM 0 | IRAK3; 10 µM 0 | JAK1; 10 µM 0 | LCK; 10 µM 0 | LIMK1; 10 µM 0 | LIMK2; 10 µM 0 | LMTK2; 10 µM 0 | LYN; 10 µM 0 | MAP2K1; 10 µM 0 | MAP2K2; 10 µM 0 | MAP4K2; 10 µM 0

CC(C)n1nc(-c2cc3cc(O)ccc3[nH]2)c2c(N)ncnc21 [Torkinib]
inactive: ERN1; 2.5 µM 0 | FGFR1; 2.5 µM 0 | FGFR2; 2.5 µM 0 | FGFR3; 2.5 µM 0 | FGR; 2.5 µM 0 | FLT3; 2.5 µM 0 | FYN; 2.5 µM 0 | GSK3A; 2.5 µM 0 | HER2; 2.5 µM 0 | INSRR; 2.5 µM 0 | IRAK3; 2.5 µM 0 | JAK1; 2.5 µM 0 | LCK; 2.5 µM 0 | LIMK1; 2.5 µM 0 | LIMK2; 2.5 µM 0 | LMTK2; 2.5 µM 0 | LYN; 2.5 µM 0 | MAP2K1; 2.5 µM 0 | MAP2K2; 2.5 µM 0 | MAP4K2; 2.5 µM 0

Molecules listed so far containing a cyano group (two):
CCOc1nc(NC(=O)Cc2cc(OC)ccc2OC)cc(N)c1C#N [JNK Inhibitor VIII]
inactive: ERN1; 10 µM 0 | FGFR1; 10 µM 0 | FGFR2; 10 µM 0 | FGFR3; 10 µM 0 | FGR; 10 µM 0 | FLT3; 10 µM 0 | FYN; 10 µM 0 | GSK3A; 10 µM 0 | HER2; 10 µM 0 | INSRR; 10 µM 0 | IRAK3; 10 µM 0 | JAK1; 10 µM 0 | LCK; 10 µM 0 | LIMK1; 10 µM 0 | LIMK2; 10 µM 0 | LMTK2; 10 µM 0 | LYN; 10 µM 0 | MAP2K1; 10 µM 0 | MAP2K2; 10 µM 0 | MAP4K2; 10 µM 0

COc1cc(Nc2c(C#N)cnc3cc(OCCCN4CCN(C)CC4)c(OC)cc23)c(Cl)cc1Cl [Bosutinib]
inactive: ERN1; 2.5 µM 0 | FGFR1; 2.5 µM 0 | FGFR2; 2.5 µM 0 | FGFR3; 2.5 µM 0 | FGR; 2.5 µM 0 | FLT3; 2.5 µM 0 | FYN; 2.5 µM 0 | GSK3A; 2.5 µM 0 | HER2; 2.5 µM 0 | INSRR; 2.5 µM 0 | IRAK3; 2.5 µM 0 | JAK1; 2.5 µM 0 | LCK; 2.5 µM 0 | LIMK1; 2.5 µM 0 | LIMK2; 2.5 µM 0 | LMTK2; 2.5 µM 0 | LYN; 2.5 µM 0 | MAP2K1; 2.5 µM 0 | MAP2K2; 2.5 µM 0 | MAP4K2; 2.5 µM 0
